Our source for the log2 fold change values is the supplement of paper PMC10849652.

Chains of the proteins cited; added tags and fusions are not shown. Lines headed by an entry give the natural chain unless they say otherwise; changes in a name come on top.
UniProt Q9C0H9: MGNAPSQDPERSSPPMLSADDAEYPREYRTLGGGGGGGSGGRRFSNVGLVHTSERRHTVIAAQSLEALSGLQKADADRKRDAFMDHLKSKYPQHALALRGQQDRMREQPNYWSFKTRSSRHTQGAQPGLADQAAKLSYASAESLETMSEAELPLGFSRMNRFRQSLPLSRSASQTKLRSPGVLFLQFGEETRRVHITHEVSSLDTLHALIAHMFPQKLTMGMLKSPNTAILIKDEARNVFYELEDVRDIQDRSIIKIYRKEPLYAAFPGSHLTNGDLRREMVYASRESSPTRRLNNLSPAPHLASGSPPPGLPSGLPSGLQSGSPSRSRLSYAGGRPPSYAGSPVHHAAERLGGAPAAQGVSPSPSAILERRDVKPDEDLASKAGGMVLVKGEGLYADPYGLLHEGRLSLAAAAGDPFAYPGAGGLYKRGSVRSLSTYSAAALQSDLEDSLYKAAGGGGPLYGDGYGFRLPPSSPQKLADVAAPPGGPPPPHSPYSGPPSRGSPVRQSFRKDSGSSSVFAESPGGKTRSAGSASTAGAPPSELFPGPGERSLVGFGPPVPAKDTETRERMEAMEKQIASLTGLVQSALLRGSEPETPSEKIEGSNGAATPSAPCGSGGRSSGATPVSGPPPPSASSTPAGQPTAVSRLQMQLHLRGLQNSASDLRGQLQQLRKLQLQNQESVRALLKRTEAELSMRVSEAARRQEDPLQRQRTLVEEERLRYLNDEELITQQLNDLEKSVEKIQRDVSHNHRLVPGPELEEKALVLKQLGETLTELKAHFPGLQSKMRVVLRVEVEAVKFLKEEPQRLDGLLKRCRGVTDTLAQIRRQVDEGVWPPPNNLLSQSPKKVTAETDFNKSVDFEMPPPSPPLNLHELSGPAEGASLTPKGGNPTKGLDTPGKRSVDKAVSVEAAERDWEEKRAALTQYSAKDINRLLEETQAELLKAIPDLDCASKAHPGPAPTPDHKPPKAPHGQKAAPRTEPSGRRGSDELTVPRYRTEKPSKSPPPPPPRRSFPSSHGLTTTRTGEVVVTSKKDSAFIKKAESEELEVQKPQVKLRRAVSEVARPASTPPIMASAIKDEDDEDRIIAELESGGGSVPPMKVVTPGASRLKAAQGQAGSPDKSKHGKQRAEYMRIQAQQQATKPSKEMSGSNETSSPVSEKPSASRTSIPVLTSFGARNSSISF
UniProt P35325: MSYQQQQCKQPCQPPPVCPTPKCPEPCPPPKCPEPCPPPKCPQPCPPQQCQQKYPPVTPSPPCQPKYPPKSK
UniProt P36956: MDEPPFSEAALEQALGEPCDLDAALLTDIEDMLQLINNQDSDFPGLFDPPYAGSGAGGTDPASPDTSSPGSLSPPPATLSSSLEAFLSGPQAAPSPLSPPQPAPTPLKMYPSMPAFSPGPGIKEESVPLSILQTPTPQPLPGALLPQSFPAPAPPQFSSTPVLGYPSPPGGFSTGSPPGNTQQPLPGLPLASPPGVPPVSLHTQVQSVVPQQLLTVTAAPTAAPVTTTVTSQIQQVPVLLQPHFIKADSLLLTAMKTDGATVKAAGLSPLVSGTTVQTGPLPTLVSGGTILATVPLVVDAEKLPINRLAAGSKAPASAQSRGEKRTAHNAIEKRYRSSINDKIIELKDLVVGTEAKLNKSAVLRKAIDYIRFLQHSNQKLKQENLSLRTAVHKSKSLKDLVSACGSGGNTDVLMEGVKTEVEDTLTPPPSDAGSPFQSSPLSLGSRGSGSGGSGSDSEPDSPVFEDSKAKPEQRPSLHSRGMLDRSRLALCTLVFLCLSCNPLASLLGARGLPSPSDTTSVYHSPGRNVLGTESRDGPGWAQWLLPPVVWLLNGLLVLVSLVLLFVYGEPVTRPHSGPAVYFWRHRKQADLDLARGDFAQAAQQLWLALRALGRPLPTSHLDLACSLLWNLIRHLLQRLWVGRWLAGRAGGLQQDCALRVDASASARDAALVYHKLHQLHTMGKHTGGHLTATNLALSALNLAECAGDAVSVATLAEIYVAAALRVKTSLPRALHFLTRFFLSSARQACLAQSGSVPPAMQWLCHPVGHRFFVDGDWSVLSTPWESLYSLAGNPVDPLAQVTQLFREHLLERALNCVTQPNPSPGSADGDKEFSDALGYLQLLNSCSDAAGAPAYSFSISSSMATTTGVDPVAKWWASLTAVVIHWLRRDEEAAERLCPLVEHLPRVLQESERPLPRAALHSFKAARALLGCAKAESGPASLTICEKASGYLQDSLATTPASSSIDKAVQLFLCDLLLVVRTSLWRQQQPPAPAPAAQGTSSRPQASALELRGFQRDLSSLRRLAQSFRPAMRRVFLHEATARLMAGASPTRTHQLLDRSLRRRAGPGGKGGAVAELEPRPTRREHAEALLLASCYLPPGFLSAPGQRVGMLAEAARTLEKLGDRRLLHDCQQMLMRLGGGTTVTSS
UniProt Q9NY15: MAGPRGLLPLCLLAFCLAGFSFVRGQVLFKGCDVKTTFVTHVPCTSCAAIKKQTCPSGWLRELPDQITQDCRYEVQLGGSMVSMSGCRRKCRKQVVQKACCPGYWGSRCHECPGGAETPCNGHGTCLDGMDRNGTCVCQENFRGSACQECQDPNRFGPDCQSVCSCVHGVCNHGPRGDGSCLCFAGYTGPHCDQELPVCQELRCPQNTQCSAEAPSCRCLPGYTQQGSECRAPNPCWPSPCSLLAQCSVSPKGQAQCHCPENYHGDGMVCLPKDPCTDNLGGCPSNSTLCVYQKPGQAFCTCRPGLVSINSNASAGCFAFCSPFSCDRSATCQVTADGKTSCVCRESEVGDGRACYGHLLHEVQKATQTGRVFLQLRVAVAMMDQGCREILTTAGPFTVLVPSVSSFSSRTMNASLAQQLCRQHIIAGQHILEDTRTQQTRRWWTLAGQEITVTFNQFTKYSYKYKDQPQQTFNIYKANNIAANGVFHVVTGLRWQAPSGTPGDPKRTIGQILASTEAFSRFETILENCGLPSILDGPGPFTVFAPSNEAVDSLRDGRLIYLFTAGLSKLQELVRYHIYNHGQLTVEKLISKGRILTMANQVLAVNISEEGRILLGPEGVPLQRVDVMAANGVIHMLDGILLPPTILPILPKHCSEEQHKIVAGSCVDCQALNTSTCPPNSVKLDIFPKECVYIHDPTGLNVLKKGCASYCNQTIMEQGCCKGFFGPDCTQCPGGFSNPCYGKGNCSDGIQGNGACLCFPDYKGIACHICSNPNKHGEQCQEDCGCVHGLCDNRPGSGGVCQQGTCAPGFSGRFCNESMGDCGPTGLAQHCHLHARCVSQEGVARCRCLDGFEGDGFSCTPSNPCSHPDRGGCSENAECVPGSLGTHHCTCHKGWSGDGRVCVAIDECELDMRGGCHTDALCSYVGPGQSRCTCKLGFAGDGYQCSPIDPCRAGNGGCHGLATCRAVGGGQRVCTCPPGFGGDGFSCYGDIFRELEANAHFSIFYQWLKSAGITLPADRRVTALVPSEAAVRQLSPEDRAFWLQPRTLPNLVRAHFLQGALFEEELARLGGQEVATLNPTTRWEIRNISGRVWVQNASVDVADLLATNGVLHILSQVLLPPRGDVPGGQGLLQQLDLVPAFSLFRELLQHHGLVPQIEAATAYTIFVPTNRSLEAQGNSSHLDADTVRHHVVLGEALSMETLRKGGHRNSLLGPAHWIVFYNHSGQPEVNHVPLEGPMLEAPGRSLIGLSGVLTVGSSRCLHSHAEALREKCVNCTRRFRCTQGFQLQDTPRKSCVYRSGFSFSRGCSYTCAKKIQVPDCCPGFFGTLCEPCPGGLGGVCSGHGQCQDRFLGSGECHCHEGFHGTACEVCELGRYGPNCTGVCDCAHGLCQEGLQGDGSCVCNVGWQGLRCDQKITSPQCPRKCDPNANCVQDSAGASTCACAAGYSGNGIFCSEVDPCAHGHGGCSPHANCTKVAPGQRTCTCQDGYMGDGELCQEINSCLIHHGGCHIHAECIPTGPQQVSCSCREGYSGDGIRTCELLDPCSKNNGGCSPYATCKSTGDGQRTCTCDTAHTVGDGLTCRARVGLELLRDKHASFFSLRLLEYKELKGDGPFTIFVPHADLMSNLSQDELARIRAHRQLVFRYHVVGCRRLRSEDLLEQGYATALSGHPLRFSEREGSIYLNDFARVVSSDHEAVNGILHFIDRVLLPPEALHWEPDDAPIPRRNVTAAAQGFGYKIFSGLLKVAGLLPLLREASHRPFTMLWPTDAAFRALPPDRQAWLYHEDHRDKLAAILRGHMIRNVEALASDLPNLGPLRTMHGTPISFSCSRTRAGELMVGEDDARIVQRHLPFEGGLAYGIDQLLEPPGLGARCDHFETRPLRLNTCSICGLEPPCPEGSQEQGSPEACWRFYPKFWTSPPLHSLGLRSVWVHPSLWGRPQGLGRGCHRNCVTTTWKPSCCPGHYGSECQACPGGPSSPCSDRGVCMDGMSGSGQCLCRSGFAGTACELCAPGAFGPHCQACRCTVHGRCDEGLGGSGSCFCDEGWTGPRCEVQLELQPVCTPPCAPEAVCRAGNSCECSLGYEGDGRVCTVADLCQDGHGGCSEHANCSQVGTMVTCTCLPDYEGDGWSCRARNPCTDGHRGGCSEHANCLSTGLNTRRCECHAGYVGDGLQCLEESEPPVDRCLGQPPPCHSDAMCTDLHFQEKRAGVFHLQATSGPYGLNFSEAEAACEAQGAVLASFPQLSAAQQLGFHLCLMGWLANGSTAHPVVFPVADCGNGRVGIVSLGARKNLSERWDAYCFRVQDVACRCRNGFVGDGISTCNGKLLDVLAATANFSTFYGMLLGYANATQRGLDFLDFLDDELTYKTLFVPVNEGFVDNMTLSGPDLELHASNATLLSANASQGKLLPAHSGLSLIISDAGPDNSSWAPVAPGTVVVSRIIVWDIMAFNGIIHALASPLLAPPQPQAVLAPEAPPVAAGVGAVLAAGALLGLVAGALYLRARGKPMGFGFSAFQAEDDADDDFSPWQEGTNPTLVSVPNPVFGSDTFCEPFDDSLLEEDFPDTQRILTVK
UniProt O76061, whole entry, looked up: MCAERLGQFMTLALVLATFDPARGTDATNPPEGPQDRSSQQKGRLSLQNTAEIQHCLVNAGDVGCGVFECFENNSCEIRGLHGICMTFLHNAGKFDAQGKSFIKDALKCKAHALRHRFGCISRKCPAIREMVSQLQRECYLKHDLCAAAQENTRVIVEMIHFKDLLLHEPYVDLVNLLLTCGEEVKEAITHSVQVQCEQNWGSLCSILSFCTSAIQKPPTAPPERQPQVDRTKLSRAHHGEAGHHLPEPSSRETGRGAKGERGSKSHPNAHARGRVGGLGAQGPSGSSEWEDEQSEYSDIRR
UniProt P52630: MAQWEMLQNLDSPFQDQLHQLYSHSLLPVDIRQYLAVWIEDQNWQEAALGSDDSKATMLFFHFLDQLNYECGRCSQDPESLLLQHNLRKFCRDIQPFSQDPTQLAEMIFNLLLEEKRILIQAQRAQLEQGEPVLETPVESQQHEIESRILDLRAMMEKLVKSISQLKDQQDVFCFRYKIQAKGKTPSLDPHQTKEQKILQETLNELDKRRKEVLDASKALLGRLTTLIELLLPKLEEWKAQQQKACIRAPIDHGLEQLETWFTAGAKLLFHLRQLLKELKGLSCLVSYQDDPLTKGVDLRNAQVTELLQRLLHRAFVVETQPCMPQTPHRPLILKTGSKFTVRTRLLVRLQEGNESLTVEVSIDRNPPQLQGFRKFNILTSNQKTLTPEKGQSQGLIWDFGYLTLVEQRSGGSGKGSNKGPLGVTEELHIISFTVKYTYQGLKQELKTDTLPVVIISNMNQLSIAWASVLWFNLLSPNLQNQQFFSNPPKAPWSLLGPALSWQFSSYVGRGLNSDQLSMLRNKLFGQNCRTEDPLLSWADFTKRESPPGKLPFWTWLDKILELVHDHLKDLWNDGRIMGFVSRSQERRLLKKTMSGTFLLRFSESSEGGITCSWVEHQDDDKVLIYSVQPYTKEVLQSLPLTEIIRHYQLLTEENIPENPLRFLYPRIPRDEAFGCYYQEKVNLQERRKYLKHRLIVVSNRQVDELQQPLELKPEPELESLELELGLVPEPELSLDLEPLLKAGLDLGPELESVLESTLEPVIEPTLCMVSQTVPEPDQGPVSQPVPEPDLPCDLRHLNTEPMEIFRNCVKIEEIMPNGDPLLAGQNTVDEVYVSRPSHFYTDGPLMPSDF
UniProt P61647: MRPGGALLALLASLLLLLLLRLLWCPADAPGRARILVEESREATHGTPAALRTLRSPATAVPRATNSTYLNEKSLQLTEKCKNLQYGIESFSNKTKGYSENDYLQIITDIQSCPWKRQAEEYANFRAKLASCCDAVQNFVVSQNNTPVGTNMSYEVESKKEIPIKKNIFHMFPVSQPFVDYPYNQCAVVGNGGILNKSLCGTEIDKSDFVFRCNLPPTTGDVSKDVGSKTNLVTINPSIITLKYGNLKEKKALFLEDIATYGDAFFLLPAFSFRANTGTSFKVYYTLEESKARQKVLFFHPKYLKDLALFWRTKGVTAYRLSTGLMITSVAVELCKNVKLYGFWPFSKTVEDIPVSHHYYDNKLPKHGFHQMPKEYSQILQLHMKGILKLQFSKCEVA

The other results are listed elsewhere or left out.

Compound in the test: C1=CC2=NC=CN=C2C=C1/C=C/3\C(=O)NC(=O)S3
Briefly: log2 fold change, soluble protein after heating vs DMSO (PISA); higher = thermal stabilisation; K562 cells, 10 uM, 30 min; active = over 0.2 and 3.5 SD of the protein, either way, in both replicates (recomputed). The method in brief: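 K562 cells at 2×10^6 cells/mL were exposed to 10 μM compound for 30 min, then aliquots were heated for 3 min across 48°C-58°C, pooled, and extracted in PBS containing 0.5% NP-40 at 4°C. The supernatant after 21,000xg for 90 min was taken as soluble protein and measured by TMTpro 16plex LC-MS/MS with channel sums equalised. Thermal stability is reported relative to control samples, with values from duplicates. Fold changes are given on a log2 scale.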
As to SPIRE2 (UniProt Q8WWL2), the log2 fold change was inactive: 0.031.
Take SSX1 (UniProt Q16384): the log2 fold change was inactive: 0.087.
Then STK17B (UniProt O94768), with inactive: -0.169; and SRCIN1 (UniProt Q9C0H9), with inactive: -0.009; and SS18 (UniProt Q15532), with inactive: 0.167.
Consider SRD5A3 (UniProt Q9H8P0), for which the log2 fold change is inactive: 0.074.
Then SPRR2B (UniProt P35325), with inactive: 0.09.
Then SSBP4 (UniProt Q9BWG4), with inactive: -0.056; and SSBP2 (UniProt P81877), with inactive: -0.067; and SREBF1 isoform 4 (UniProt P36956), with inactive: 0.068.
Regarding STAB1 (UniProt Q9NY15), the log2 fold change was inactive: 0.145.
Consider SRXN1 (UniProt Q9BYN0), for which the log2 fold change is inactive: 0.031.
With STC2 (UniProt O76061) the figure was inactive: 0.127; with SPICE1 (UniProt Q8N0Z3), inactive: -0.34; with SRGAP1 (UniProt Q7Z6B7), inactive: -0.025.
With STAT2 (UniProt P52630) the figure was inactive: -0.103.
Then SRCAP (UniProt Q6ZRS2), with inactive: 0.117; and ST8SIA6 (UniProt P61647), with inactive: 0.
Take SPATA33 isoform 2 (UniProt Q96N06): the log2 fold change is inactive: 0.078.
On to SREBF2 (UniProt Q12772), for which the log2 fold change is inactive: -0.041.
On to SPATA31E1 (UniProt Q6ZUB1), for which the log2 fold change was inactive: 0.044.
